# Measured values reported in article PMC12608320, “Insecticidal Potential of Aniba canelilla (H.B.K.) Mez Essential Oil Against Aedes aegypti: Larvicidal and Adulticidal Activities, Mechanism of Action, and Formulation Development” (Plants, 2025).
# How the values were obtained:
# Aedes aegypti larvae = test: Larvicidal activity against Aedes aegypti third instar larvae
# Experimental: Eggs of the Rockefeller strain of Aedes aegypti were hatched in filtered water, and larvae were reared under controlled conditions (28 ± 1 °C; 12 h photoperiod) until reaching the third instar (L3). […] Each test condition, including controls, was run in quadruplicate. […] Formulations (PEOANIB, PNFTANE, PNFTENE) were applied with the same protocol used for DMSO-dissolved samples, keeping the final solvent concentration at 1% (v/v) of the total water volume.
# Negative controls contained either DMSO (200 µL) alone or blank nanomicelles (NBr) at a volume matching the highest concentration tested, whereas the positive control comprised temephos at 1 µg mL^−1. After 14 days of preparation of the formulation, an activity confirmation test was performed at fixed concentrations of PNFTANE (70 ppm) and PNFTENE (5 ppm) formulations. The assays were performed in quadruplicate.
# Artemia salina nauplii = test: Toxicity test on Artemia salina nauplii (non-target); assay type: in vivo; conditions: 24 h
# Experimental: Toxicity assays with Artemia salina followed the procedure of Meyer and collaborators with adaptations like those of [86, 107]. For cyst hatching, 25 mg of eggs were placed in a cuboid-glass vessel containing 600 mL of artificial seawater (38 g L^−1 in distilled water) and incubated at 28–30 °C under continuous illumination from a 40 W incandescent lamp. After 24 h, the nauplii (first larval stage) were transferred to fresh saline and reared for an additional 24 h under the same conditions to obtain metanauplii (second larval stage), which were used in the bioassays. Ten metanauplii were exposed to 10 mL of saline containing the test samples dissolved in DMSO. […] After dosing, organisms were maintained at 28–30 °C under artificial light for 24 h. Mortality defined as immobility or sinking to the bottom was recorded, and LC50 values were calculated for each sample. All experiments were performed in triplicate with independent replicates under identical conditions to ensure reproducibility.
Compound,Slope ± SEM (LC99 fit) (Aedes aegypti larvae; 24 h exposure),Slope ± SEM (LC99 fit) (Aedes aegypti larvae; 48 h exposure),Slope ± SEM (Artemia salina nauplii)
"O=[N+]([O-])CCc1ccccc1 [NFTANE, 1-Nitro-2-phenylethane]",22.2 ± 3.1,36.9 ± 8.0,5.8 ± 0.9
"O=[N+]([O-])C=Cc1ccccc1 [NFTENE, 1-Nitro-2-phenylethene]",2.4 ± 0.1,3.7 ± 0.1,4.5 ± 0.6
